In PMC9266460, “KSK-74: Dual Histamine H3 and Sigma-2 Receptor Ligand with Anti-Obesity Potential” (International Journal of Molecular Sciences, 2022):

tested on: rats fed a palatable diet; test: Spontaneous activity (RFID TraffiCage); type: in vivo, female Wistar rats; conditions: KSK 10 mg/kg b.w., phentermine 7 mg/kg; vs palatable diet + vehicle

Row | SMILES | spontaneous activity after the 1st (single) administration | spontaneous activity after the 27th (repeated) administration
1 | CCC(=O)c1ccc(OCCCCCCN2CCN(c3ccncc3)CC2)cc1 [KSK-60] | reduced spontaneous activity at the 17th hour of measurement | reduction in spontaneous activity at the 15th hour of measurement
2 | CCC(=O)c1ccc(OCCCCCCCCN2CCN(c3ccncc3)CC2)cc1 [KSK-74] | did not affect spontaneous activity | did not affect spontaneous activity
3 | CC(C)(N)Cc1ccccc1 [phentermine, reference compound] | decreased spontaneous activity at the 17th hour of measurement | increase in spontaneous activity at the 2nd hour of measurement
